This is one part of the list. Further columns of the screen follow, without active or inactive calls. The list favours compounds with an active or inconclusive main result. Words in brackets tell the shape of the fitted curve; partial curves, single points and poor fits give uncertain potencies.
Test: qHTS Assay to Find Inhibitors of Chronic Active B-Cell Receptor Signaling
Details: ABC-DLBCL IkBa-CBG/CBR reporter, luminescence ratio (green luciferase fused to IkBa over red control in TMD8 lymphoma cells), 4 h
Method in brief: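 Doxycycline induced both beetle luciferases in TMD8 lymphoma cells; IKK-driven degradation limits the IkappaBalpha-fused green signal, while red luminescence normalises for cell number and nonspecific effects. Compounds tested up to 46 uM, 4 hrs.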

[1] = measured here: CBR red luminescence, cell number
[2] = measured here: IkBa-CBG green luminescence

SMILES | AC50 [1] | AC50 [2]
CC(Sc1nnc2c(n1)[nH]c1ccccc12)C(=O)N(C)C1CCCCC1 (centres undefined) | 17.8 µM [falling, single point] | –
O=C(c1cccs1)N1N=C(c2ccccc2)CC1c1ccccc1O (centres undefined) | 5.62 µM [rising, partial curve, poor fit] | –
COc1cc(/C=C/C(=O)c2ccc([N+](=O)[O-])o2)ccc1O | 7.31 µM [rising, single point] | 9.2 µM [falling, single point]
Cc1cc2nc(-c3ccc(SCC(=O)Nc4ccc5c(c4)OCCO5)nc3)[nH]c2cc1C | 2.24 µM [falling, partial curve] | –
COc1ccc(C(=O)CNc2ccc(C)cc2C)cc1 | 12.6 µM [falling, partial curve] | –
Cc1nn(C)c(Cl)c1NC(=O)OCc1ccc(F)cc1 | 14.1 µM [rising, single point] | –
COc1ccc(-c2nc(CN3CCN(Cc4cccc(Cl)c4)CC3)c(C)o2)cc1 | 6.31 µM [rising, full curve, poor fit] | –
O=C(c1ccccc1)c1ccc(OCC(O)CNCc2ccc(F)cc2)cc1 (centres undefined) | 35.5 µM [falling, single point] | –
CCC(=O)NCCC(c1ccco1)c1ccccc1OC (centres undefined) | – | 18.4 µM [rising, single point]
O=C(O)CCNS(=O)(=O)c1ccc2c(c1)Cc1ccccc1-2 | 1.78 µM [falling, full curve] | –
O=C(CCS(=O)(=O)c1cccc2nonc12)NCCc1ccccc1 | 29.1 µM [rising, single point] | –
Clc1ccc(-c2cc(-c3ccccc3)on2)cc1 | 0.13 µM [rising, full curve, poor fit] | –
COc1ccccc1/C=C/C(=O)NC(=S)Nc1ccc(S(=O)(=O)N(C)c2ccccc2)cc1 | 3.16 µM [falling, full curve] | –
O=C(Oc1cccc2cccnc12)c1ccc(N2C(=O)C3C4CCC(C4)C3C2=O)cc1 (centres undefined) | 3.66 µM [falling, full curve] | 8.2 µM [falling, single point]
CNCc1ccccc1Sc1cccc2ccccc12 | 29.1 µM [falling, single point] | –
Cc1cc(C)cc(OC(=O)CS(=O)c2ccc(C(F)(F)F)cc2[N+](=O)[O-])c1 (centres undefined) | 7.31 µM [falling, single point] | –
CC(NC(=O)c1cc2ccccc2oc1=O)c1ccc(O)cc1 (centres undefined) | 0.794 µM [rising, partial curve, poor fit] | –
CCSc1nc2ccccc2n1Cc1cccc([N+](=O)[O-])c1 | 35.5 µM [rising, partial curve, poor fit] | –
O=C(Cc1ccc(S(=O)(=O)N2CCOCC2)s1)NNC(=O)c1ccccc1Cl | 20.6 µM [falling, single point] | –
COc1ccccc1N1CCN(CC(=O)Nc2ccc3c(c2)OCCO3)CC1 | 35.5 µM [falling, single point] | –

SMILES | AC50 [1] | AC50 [2]
O=C(CCCN1C(=O)/C(=C\c2cccs2)SC1=S)NNC(=O)c1cccnc1 | 3.16 µM [falling, full curve, poor fit] | –
COc1ccc(OC)c(S(=O)(=O)NCC(c2ccc3c(c2)OCO3)N2CCOCC2)c1 (centres undefined) | 32.6 µM [falling, partial curve, poor fit] | –
O=C(N/N=C/c1ccc(C(F)(F)F)cc1)c1ccc(O)cc1 | 0.447 µM [falling, full curve, poor fit] | –
CCOC(=O)c1ccc(NC(=O)CNNC(=O)COc2ccccc2C)cc1 | 2.59 µM [falling, partial curve] | –
Cc1cc(C)c2c(CC(=O)Nc3ccc(Cl)cn3)coc2c1 | 32.6 µM [rising, single point] | –
O=C(CC(c1ccccc1)c1ccccc1O)NCc1ccccc1Cl (centres undefined) | 16.4 µM [falling, single point] | –
COc1ccc(NC(=O)C/C(C)=N/NC(=O)c2cnccn2)c(OC)c1 | 8.91 µM [falling, partial curve, poor fit] | –
O=C(O)C1CCCN1c1nc(-c2ccc(Cl)c(Cl)c2)cc(C(F)(F)F)n1 (centres undefined) | 29.1 µM [falling, single point] | –
O=C(NCCNc1cc(Cl)ccc1[N+](=O)[O-])c1ccco1 | 0.58 µM [rising, partial curve, poor fit] | –
Cc1c(C)n(C)c2ccc(C(=O)Nc3cccc4ccccc34)cc12 | 1.41 µM [falling, full curve, poor fit] | –
CCN(c1ccc(NC(=O)CSc2nnc3nc(C)cc(C)n23)cc1)C(C)C | 25.9 µM [rising, single point] | –
COc1cc(C(=O)OCC#N)ccc1OCc1c(C)noc1C | 35.5 µM [rising, single point] | 35.5 µM [falling, single point]
CC(NC(=O)Cn1ncc(Cl)c(Cl)c1=O)C12CC3CC(CC(C3)C1)C2 (centres undefined) | 8.2 µM [falling, partial curve] | 29.1 µM [rising, partial curve, poor fit]
Cc1csc(NC(=O)CSc2ccccc2F)n1 | 28.2 µM [falling, single point] | –
COc1ccccc1NS(=O)(=O)c1cccc2nsnc12 | 11.2 µM [falling, partial curve, poor fit] | –
CCOC(=O)c1c(C)[nH]c(C)c1C(=O)COC(=O)c1ccc(S(=O)(=O)C(F)F)cc1 | 6.51 µM [rising, partial curve, poor fit] | –
O=C(CN1C2=NCCN2c2ccccc21)C12CC3CC(CC(C3)C1)C2 | 31.6 µM [falling, single point] | –
Nc1c(Cl)cc(Cl)cc1C(=O)OCC(=O)N1CCCC1 | 29.1 µM [falling, single point] | –
COC(=O)c1cc(S(=O)(=O)N2CCCCC2)c[nH]1 | 31.6 µM [rising, single point] | –
O=C1c2ccccc2C(=O)N1CCCCCCc1ccccc1 | 20.6 µM [rising, single point] | –

In a second layout: entries from further up.
O=C(N/N=C/c1ccc(C(F)(F)F)cc1)c1ccc(O)cc1
  AC50 [1]: 0.447 µM [falling, full curve, poor fit]
O=C(CC(c1ccccc1)c1ccccc1O)NCc1ccccc1Cl (centres undefined)
  AC50 [1]: 16.4 µM [falling, single point]
O=C(O)C1CCCN1c1nc(-c2ccc(Cl)c(Cl)c2)cc(C(F)(F)F)n1 (centres undefined)
  AC50 [1]: 29.1 µM [falling, single point]

From PubChem BioAssay AID493014 (National Center for Advancing Translational Sciences (NCATS), 2011)
